According to US20080139664A1, “ANTI-GLYCATION AGENTS FOR PREVENTING AGE-, DIABETES-, AND SMOKING-RELATED COMPLICATIONS” (NATIONAL RESEARCH COUNCIL OF CANADA, priority 2001, published 2008):

Key:
lysozyme = experiment: ESI-MS of lysozyme glycoforms after incubation with D-ribose; conditions: 37° C., 5 days;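 note: lysozyme incubated with D-ribose, with or without anti-glycation agents, then separated by reversed-phase HPLC and analysed by electrospray mass spectrometry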
[1] = tested on: bovine serum albumin (BSA)

For O=C1OCCN1/N=C/c1ccc([N+](=O)[O-])o1 [Furazolidone], the “Peak area as % of total area of all glycoforms, 14,569” value (lysozyme; lysozyme + 2D-ribose − 2H2O (14,569 Da)) was 4.6%, the “Peak area as % of total area of all glycoforms, 14,551” value (lysozyme; lysozyme + 2D-ribose − 3H2O (14,551 Da)) was 3.1% and the “Peak area as % of total area of all glycoforms, 14,533” value (lysozyme; lysozyme + 2D-ribose − 5H2O (14,533 Da)) was 1.7%. For the same compound, the “Peak area as % of total area of all glycoforms, 14,515” value (lysozyme; lysozyme + 2D-ribose − 6H2O (14,515 Da)) was 0.9%, the “Peak area as % of total area of all glycoforms, 14,419” value (lysozyme; lysozyme + D-ribose − 2H2O (14,419 Da)) was 6.6% and the “Peak area as % of total area of all glycoforms, 14,401” value (lysozyme; lysozyme + D-ribose − 3H2O (14,401 Da)) was 0.0%. For the same compound, the “Peak area as % of total area of all glycoforms, 14,437” value (lysozyme; lysozyme + D-ribose − H2O (14,437 Da)) was 22.7%, the “Peak area as % of total area of all glycoforms, 14,496” value (lysozyme; lysozyme + D-ribose − H2O with one carboxymethylated Lys residue (14,496 Da)) was 0.0% and the “Peak area as % of total area of all glycoforms, 14,364” value (lysozyme; lysozyme with one carboxymethylated Lys residue (14,364 Da)) was 2.2%. The “Peak area as % of total area of all glycoforms, 14,305” value (lysozyme; unmodified lysozyme (14,305 Da)) was 56.8%, the IC50 [1] was 33 µM and the “maximum percentage of the inhibition” value [1] was 38%).
